Reference: publication PMC4945878
No constants are given. Whether binding was seen depends on the method and setting. In cells and extracts the contact can be indirect. Binding calls can cover weak binding; strength is not graded here.

Chains of the proteins cited; added tags and fusions are not shown. Lines headed by an entry give the natural chain unless they say otherwise; changes in a name come on top.
UniProt Q9HAW4: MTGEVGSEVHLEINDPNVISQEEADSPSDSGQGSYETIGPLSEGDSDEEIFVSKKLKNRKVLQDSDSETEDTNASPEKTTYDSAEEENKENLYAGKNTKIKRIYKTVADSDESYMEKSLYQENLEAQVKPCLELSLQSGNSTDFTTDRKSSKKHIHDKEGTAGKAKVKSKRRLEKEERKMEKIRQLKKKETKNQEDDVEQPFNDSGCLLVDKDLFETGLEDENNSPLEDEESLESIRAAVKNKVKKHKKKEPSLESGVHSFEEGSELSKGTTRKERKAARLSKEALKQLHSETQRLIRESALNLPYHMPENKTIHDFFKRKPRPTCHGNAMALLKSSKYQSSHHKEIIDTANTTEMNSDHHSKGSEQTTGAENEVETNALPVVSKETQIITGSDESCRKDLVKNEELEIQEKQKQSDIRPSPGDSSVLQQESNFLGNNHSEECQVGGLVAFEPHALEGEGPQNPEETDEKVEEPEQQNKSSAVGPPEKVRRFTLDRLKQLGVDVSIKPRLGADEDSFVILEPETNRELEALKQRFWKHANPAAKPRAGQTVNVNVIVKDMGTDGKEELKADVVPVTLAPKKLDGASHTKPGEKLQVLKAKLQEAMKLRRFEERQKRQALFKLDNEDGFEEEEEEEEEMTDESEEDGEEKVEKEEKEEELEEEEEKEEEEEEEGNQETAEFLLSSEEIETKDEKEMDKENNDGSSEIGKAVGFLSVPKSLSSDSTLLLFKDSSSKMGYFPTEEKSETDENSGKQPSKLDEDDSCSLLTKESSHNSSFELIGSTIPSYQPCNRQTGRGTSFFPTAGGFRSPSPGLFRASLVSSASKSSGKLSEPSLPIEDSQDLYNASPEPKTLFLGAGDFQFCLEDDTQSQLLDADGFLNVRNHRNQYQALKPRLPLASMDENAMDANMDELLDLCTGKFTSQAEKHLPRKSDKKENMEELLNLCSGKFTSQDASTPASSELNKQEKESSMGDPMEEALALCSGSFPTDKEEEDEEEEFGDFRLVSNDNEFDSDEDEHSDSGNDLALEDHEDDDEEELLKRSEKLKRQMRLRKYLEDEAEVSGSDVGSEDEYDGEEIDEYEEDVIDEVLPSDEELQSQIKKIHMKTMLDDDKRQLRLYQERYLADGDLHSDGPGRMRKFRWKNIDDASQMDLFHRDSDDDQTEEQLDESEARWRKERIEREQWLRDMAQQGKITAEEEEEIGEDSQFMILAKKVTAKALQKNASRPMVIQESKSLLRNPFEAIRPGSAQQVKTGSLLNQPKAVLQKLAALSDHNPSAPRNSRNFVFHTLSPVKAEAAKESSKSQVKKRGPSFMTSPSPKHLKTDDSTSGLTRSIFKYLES
UniProt O00311: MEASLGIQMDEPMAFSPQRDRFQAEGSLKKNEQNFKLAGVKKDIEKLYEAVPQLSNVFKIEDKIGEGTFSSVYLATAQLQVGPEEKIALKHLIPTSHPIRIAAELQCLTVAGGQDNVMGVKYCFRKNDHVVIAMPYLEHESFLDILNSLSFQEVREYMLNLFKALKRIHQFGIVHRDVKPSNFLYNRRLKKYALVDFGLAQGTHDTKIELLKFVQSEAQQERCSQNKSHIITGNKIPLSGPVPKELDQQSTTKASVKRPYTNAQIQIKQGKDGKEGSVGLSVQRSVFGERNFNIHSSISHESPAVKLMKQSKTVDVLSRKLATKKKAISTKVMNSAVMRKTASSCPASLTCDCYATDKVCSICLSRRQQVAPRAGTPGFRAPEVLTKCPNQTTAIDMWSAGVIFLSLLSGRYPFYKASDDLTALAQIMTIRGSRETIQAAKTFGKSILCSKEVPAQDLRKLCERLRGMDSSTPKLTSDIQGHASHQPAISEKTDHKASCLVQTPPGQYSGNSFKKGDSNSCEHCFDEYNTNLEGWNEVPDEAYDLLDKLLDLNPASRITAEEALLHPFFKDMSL

What was measured:
[1] = biological target: Claspin ST27E mutant, 3xFlag (human) (UniProt Q9HAW4); experiment: co-IP; Claspin or its derivatives, 3xFlag at the C terminus, transiently expressed in 293T cells; lysate in CSK buffer with 0.1% TritonX-100 and Benzonase; anti-Flag M2 affinity beads 60 min at 4 °C; endogenous partners detected by western blotting; also told for Cdc7-depleted cells (Supplementary Fig. 9)
[2] = biological target: Claspin ST27A mutant, 3xFlag (human) (UniProt Q9HAW4); experiment: as above

Row | binding [1] | binding [2] | Molecule
1 | binds | binds | Cdc7 kinase (from UniProt O00311 1-574) (enzyme)
2 | binds | binds | Cdc45 (endogenous) (protein, UniProt O75419 1-566) MFVSDFRKEFYEVVQSQRVLLFVASDVDALCACKILQALFQCDHVQYTLVPVSGWQELETAFLEHKEQFHYFILINCGANVDLLDILQPDEDTIFFVCDTHRPVNVVNVYNDTQIKLLIKQDDDLEVPAYEDIFRDEEEDEEHSGNDSDGSEPSEKRTRLEEEIVEQTMRRRQRREWEARRRDILFDYEQYEYHGTSSAMVMFELAWMLSKDLNDMLWWAIVGLTDQWVQDKITQMKYVTDVGVLQRHVSRHNHRNEDEENTLSVDCTRISFEYDLRLVLYQHWSLHDSLCNTSYTAARFKLWSVHGQKRLQEFLADMGLPLKQVKQKFQAMDISLKENLREMIEESANKFGMKDMRVQTFSIHFGFKHKFLASDVVFATMSLMESPEKDGSGTDHFIQALDSLSRSNLDKLYHGLELAKKQLRATQQTIASCLCTNLVISQGPFLYCSLMEGTPDVMLFSRPASLSLLSKHLLKSFVCSTKNRRCKLLPLVMAAPLSMEHGTVTVVGIPPETDSSDRKNFFGRAFEKAAESTSSRMLHNHFDLSVIELKAEDRSKFLDALISLLS
